These are yes or no findings as the source states them, for the method shown. Some results given as binding are weak or reduced against the parent protein; the word gives no strength.
Experiments:
[1] = target: T1, Rad22 (the S. pombe Rad52 homolog) (S. pombe) (UniProt P36592); experiment: co-IP; coimmunoprecipitation in vitro of the ternary complex RPA-Rad22-Rhp51, formed in solution in the absence of ATP; unpublished data; both purified
T1 sequence: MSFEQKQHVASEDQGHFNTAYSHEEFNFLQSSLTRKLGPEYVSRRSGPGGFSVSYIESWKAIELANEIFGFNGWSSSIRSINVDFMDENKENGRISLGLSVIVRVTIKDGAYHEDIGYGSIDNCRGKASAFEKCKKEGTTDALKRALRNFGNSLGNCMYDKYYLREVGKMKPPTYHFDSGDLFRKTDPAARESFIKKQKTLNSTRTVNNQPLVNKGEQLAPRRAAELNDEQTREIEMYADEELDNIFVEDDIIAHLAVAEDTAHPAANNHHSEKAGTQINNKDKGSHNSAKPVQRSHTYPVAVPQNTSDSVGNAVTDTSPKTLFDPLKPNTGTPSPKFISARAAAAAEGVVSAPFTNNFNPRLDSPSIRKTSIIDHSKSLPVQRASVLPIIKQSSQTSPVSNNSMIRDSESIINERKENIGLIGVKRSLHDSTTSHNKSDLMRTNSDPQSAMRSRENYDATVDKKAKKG

[2] = target: T1, Rad22 (the S. pombe Rad52 homolog) (S. pombe); experiment: pull-down; css beads mixed with 5 uM Rhp51 and Rad22 (0.1 or 0.25 uM) at 37 °C for 5 min, then RPA (1 uM) added for 5 min; ATP; bead-bound proteins analysed by SDS-PAGE; both purified
[3] = target: T1, Rad22 (the S. pombe Rad52 homolog) (S. pombe); experiment: co-IP; immunoprecipitation assay in the absence of an adenine nucleotide; unpublished data; pairs Rhp51-Rad22 and Rad22-RPA; both purified

binding [1]: binds
binding [2]: binds
binding [3]: binds
B1: Rhp51 recombinase (the S. pombe Rad51 homolog) (enzyme, UniProt P36601 1-365)
chain: MADTEVEMQVSAADTNNNENGQAQSNYEYDVNVQDEEDEAAAGPMPLQMLEGNGITASDIKKIHEAGYYTVESIAYTPKRQLLLIKGISEAKADKLLGEASKLVPMGFTTATEYHIRRSELITITTGSKQLDTLLQGGVETGSITELFGEFRTGKSQICHTLAVTCQLPIDMGGGEGKCLYIDTEGTFRPVRLLAVADRYGLNGEEVLDNVAYARAYNADHQLELLQQAANMMSESRFSLLVVDSCTALYRTDFSGRGELSARQMHLARFMRTLQRLADEFGIAVVITNQVVAQVDGISFNPDPKKPIGGNILAHSSTTRLSLRKGRGEQRICKIYDSPCLPESEAIFAINSDGVGDPKEIIAPV

— publication PMC2292753
